Data as given in PubChem BioAssay AID1259254 (NCATS, 2017).
The whole screen tested about 59,000 reagents; this is an unselected part. About 1,550 of all reagents (2.6%) count as active. 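G2 share is only a proxy for re-replication; each gene was hit by three separate siRNAs, and active genes were retested.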 Raw values vary from plate to plate and are shown uncorrected. Entries without a mark were called inactive. Reagents against one gene are numbered here. Not stated in the record: the amount of reagent.

Assay: 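Gene knock-downs that lead to re-replication, shown by excess G2 DNA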 (primary screen)
System: human HCT116 colorectal cancer cells
Reagents: single siRNA against human genes
Time to read-out: 3 days
Measured: 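Nuclei stained with Hoechst and imaged; cell-cycle phase assigned by DNA content; G2 share scaled per plate, non-targeting siRNA 0%, GMNN siRNA 100%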
Scale: G2 robust z-score and G2 cells, % of GMNN control: higher = more G2 cells, more excess DNA replication; raw share of cells in G2: higher = larger share of cells with G2 DNA content
Hit rule: 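An siRNA counts as active if its G2 robust z-score lies at least 5 MADs above the screen median; here such calls match roughly 38% of GMNN control or more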

no.	Gene	siRNA no.	G2 robust z-score	G2 cells, % of GMNN control	raw share of cells in G2 (%)
1	CD2BP2	1	-1.83	-9.94	2.56
2	CD2BP2	2	0.118	3.8	7.35
3	CD2BP2	3	-0.405	0.119	3.88
4	PLA1A	1	-0.645	-1.57	3.66
5	PLA1A	2	-0.0347	2.72	4.84
6	PLA1A	3	-0.656	-1.65	5.21
7	CENPC	1	0.288	5	6.74
8	CENPC	2	-1	-4.07	3.51
9	CENPC	3	0.31	5.15	5.87
10	MYH13	1	-0.277	1.02	5
11	MYH13	2	4.71	36.1	17.6
12	MYH13	3	-0.548	-0.89	4.95
13	GNAQ	1	0.0272	3.16	6.46
14	GNAQ	2	-0.356	0.462	3.82
15	GNAQ	3	2.04	17.3	11.5
16	LSM11	1	-0.00588	2.93	5.93
17	LSM11	2	0.0951	3.64	6.03
18	LSM11	3	-0.783	-2.54	4.74
19	CCDC90B	1	0.763	8.34	8.21
20	CCDC90B	2	-0.212	1.48	5.27
21	CCDC90B	3	0.732	8.12	4.84
22	OR10K1	1	0.451	6.14	7.34
23	OR10K1	2	-0.798	-2.65	2.85
24	OR10K1	3	0.108	3.73	5
25	CTDP1	1	2.97	23.9	12.6
26	CTDP1	2	-1.17	-5.26	2.72
27	CTDP1	3	0.24	4.65	4.9
28	ZNF281	1	-1.19	-5.42	2.34
29	ZNF281	2	1.29	12	7.99
30	ZNF281	3	5.29 (active)	40.2	22.5
31	CBLN3	1	0.587	7.1	6.34
32	CBLN3	2	3.01	24.1	12
33	CBLN3	3	2.41	20	8.96
34	SIAE	1	0.218	4.5	5.22
35	SIAE	2	1.33	12.4	9.47
36	SIAE	3	-0.618	-1.38	2.74
37	LOC645485	1	-0.715	-2.06	3
38	LOC645485	2	-0.532	-0.774	2.94
39	LOC645485	3	-0.728	-2.15	2.36
40	GRIN3A	1	-0.614	-1.35	4.8
41	GRIN3A	2	1.23	11.6	8.72
42	GRIN3A	3	0.116	3.79	5.85
43	AAK1	1	0.764	8.35	8.18
44	AAK1	2	-0.0521	2.6	6.14
45	AAK1	3	-0.556	-0.944	3.38
46	INPP5D	1	0.284	4.97	6.41
47	INPP5D	2	-0.513	-0.645	4.11
48	INPP5D	3	-0.369	0.37	3.61
49	BRIX1	1	2.25	18.8	9.15
50	BRIX1	2	0.43	5.99	6.83
51	BRIX1	3	0.153	4.04	5.81
52	NABP2	1	-0.711	-2.04	4.8
53	NABP2	2	-1.17	-5.24	2.49
54	NABP2	3	-1	-4.09	2.74
55	TEX261	1	-0.678	-1.81	3.37
56	TEX261	2	3.48	27.5	11.5
57	TEX261	3	-0.311	0.779	2.05
58	DTNB	1	-0.878	-3.21	4.07
59	DTNB	2	-0.116	2.15	6.08
60	DTNB	3	-0.809	-2.72	2.69
61	MTX2	1	-0.0317	2.74	6.06
62	MTX2	2	0.905	9.34	7.99
63	MTX2	3	1.15	11	7.31
64	GFPT2	1	2.66	21.7	13.6
65	GFPT2	2	1.03	10.2	9.06
66	GFPT2	3	-0.576	-1.08	2.83
67	H2BC5	1	4.63	35.6	17.5
68	H2BC5	2	2.53	20.8	15
69	H2BC5	3	0.134	3.91	5.52
70	HNRNPKP3	1	-1.16	-5.2	1.92
71	HNRNPKP3	2	-0.709	-2.02	2.72
72	HNRNPKP3	3	0.827	8.79	8.43
73	TLX2	1	2.39	19.8	12.2
74	TLX2	2	-0.933	-3.6	4.31
75	TLX2	3	3.12	24.9	13.3
76	MCEE	1	-0.129	2.06	3.03
77	MCEE	2	0.603	7.21	6.51
78	MCEE	3	-0.564	-0.997	3.16
79	SPHK2	1	-0.0757	2.43	6.35
80	SPHK2	2	-0.993	-4.02	3.73
81	SPHK2	3	-1	-4.06	2.38
82	GTF2E2	1	0.0704	3.46	4.83
83	GTF2E2	2	-0.177	1.72	5.65
84	GTF2E2	3	-0.27	1.07	3.5
85	RADIL	1	-0.469	-0.333	4.4
86	RADIL	2	-0.949	-3.71	2.6
87	RADIL	3	-0.659	-1.67	2.6

15 successive entries already listed, quoted:
no.	Gene	siRNA no.	G2 robust z-score	G2 cells, % of GMNN control	raw share of cells in G2 (%)
52	NABP2	1	-0.711	-2.04	4.8
53	NABP2	2	-1.17	-5.24	2.49
54	NABP2	3	-1	-4.09	2.74
55	TEX261	1	-0.678	-1.81	3.37
56	TEX261	2	3.48	27.5	11.5
57	TEX261	3	-0.311	0.779	2.05
58	DTNB	1	-0.878	-3.21	4.07
59	DTNB	2	-0.116	2.15	6.08
60	DTNB	3	-0.809	-2.72	2.69
61	MTX2	1	-0.0317	2.74	6.06
62	MTX2	2	0.905	9.34	7.99
63	MTX2	3	1.15	11	7.31
64	GFPT2	1	2.66	21.7	13.6
65	GFPT2	2	1.03	10.2	9.06
66	GFPT2	3	-0.576	-1.08	2.83
